# Results are given in words; binding and its absence hold for the method and conditions named. Binding seen in cells or lysates may run through a third protein. Some binding calls cover weakened binding; strength is not graded here. For part of these data: Sequences can lack the tags named with a protein.
# By UniProt entry, the sequences of proteins in these tests, tags left out.
# UniProt Q96P20: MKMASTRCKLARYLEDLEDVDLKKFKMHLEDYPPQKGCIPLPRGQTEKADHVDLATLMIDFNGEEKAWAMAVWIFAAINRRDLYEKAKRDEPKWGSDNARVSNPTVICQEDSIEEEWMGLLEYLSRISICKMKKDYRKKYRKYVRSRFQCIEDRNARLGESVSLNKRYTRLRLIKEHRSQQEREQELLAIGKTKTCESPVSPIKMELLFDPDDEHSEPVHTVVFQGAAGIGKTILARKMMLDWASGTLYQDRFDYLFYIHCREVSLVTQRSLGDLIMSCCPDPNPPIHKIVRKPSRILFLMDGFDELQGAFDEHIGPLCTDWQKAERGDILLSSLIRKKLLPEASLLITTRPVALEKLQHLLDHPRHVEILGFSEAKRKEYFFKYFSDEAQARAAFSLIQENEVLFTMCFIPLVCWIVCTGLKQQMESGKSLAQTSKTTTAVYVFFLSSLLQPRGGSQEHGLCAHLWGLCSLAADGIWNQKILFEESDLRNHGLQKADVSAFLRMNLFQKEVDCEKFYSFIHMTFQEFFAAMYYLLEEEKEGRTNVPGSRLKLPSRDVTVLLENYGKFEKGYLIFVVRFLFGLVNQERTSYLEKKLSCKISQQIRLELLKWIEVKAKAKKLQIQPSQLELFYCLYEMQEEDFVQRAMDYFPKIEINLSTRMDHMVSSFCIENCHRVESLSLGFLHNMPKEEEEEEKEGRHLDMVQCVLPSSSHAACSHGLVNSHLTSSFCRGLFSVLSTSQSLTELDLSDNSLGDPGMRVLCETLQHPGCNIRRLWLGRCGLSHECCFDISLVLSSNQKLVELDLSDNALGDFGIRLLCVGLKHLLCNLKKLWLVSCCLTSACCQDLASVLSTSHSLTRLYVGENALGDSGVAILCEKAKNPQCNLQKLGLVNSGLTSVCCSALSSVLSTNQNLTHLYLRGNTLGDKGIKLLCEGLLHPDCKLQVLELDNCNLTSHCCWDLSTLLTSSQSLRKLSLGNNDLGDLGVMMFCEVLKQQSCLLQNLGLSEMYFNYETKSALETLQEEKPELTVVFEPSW
# UniProt Q676U5: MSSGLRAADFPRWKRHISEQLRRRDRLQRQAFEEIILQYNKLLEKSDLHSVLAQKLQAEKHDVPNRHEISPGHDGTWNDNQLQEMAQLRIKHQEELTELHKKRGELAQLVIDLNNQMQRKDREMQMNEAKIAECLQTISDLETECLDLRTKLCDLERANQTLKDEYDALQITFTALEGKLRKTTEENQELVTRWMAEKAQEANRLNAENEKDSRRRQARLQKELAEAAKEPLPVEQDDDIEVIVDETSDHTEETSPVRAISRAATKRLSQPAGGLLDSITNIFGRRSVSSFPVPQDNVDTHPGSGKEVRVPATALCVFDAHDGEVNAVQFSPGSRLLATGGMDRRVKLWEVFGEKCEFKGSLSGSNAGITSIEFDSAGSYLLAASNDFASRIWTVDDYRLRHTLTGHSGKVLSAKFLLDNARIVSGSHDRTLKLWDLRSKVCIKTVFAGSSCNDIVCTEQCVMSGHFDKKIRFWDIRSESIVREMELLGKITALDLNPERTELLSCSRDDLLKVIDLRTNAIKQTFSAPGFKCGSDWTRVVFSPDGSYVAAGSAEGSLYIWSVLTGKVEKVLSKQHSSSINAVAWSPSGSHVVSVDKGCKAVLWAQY
# UniProt Q14457: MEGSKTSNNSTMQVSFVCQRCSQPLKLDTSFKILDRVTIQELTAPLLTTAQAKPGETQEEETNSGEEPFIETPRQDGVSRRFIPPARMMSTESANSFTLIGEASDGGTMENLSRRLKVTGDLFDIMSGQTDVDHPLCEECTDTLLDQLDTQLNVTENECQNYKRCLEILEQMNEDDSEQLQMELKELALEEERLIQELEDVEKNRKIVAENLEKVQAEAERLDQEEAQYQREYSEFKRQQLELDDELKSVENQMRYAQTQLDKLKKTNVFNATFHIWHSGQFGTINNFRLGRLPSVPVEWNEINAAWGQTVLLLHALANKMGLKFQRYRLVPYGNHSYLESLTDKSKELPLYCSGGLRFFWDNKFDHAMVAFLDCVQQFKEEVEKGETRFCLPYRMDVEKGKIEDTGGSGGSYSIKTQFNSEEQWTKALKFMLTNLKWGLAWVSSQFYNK
# Tests used:
# NLRP3 = NLRP3 (UniProt Q96P20); assay: co-IP of GFP-TRIM20 variants with NLRP3, HEK293 cells
# ATG16L1 = ATG16L1 (UniProt Q676U5); assay: co-IP of TRIM20 deletion variants with Flag-ATG16L1
# Beclin 1 = Beclin 1 (UniProt Q14457); assay: co-IP of GFP-TRIM20 deletion variants with Flag-Beclin 1
# ULK1 = target: T1, ULK1 (UniProt O75385); assay: co-IP with anti-GFP, Myc-ULK1, HEK293 cells
# T1 sequence (looked up): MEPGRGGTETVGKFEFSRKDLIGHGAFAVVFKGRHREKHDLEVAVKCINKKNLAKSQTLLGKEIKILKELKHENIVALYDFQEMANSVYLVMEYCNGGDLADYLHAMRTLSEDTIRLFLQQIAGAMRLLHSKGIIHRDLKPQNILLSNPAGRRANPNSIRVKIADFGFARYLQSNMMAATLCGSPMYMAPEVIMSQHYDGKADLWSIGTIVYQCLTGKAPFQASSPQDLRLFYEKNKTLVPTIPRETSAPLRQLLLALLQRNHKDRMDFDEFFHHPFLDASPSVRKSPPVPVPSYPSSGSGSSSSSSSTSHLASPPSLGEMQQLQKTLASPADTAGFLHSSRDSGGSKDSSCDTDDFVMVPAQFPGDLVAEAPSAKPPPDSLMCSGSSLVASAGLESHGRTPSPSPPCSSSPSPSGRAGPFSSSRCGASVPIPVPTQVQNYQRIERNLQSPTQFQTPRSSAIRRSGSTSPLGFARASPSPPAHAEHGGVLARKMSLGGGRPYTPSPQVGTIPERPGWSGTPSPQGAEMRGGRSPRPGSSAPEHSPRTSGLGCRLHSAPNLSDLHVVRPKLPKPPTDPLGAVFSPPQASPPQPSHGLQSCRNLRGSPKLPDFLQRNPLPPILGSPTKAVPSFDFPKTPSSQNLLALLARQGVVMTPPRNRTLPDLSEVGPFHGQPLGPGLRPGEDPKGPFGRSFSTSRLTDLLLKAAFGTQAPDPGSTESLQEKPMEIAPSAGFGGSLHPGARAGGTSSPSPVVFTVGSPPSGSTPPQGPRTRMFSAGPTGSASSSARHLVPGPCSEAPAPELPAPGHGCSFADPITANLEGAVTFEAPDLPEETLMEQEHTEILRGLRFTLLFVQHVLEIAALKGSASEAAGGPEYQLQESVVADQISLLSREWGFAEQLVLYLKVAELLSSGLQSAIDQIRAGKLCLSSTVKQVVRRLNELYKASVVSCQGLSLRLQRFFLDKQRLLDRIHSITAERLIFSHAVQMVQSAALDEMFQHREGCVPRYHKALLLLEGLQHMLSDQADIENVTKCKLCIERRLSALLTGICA
Binder,binding (NLRP3),binding (ATG16L1),binding (Beclin 1),binding (ULK1)
"TRIM20 construct containing only the PRY/SPRY domain (protein, not shown: large carriers) SEMEMFNVPELIGAQAHAVNVILDAETAYPNLIFSDDLKSVRLGNKWERLPDGPQRFDSCIIVLGSPSFLSGRRYWEVEVGDKTAWILGACKTSISRKGNMTLSPENGYWVVIMMKENEYQASSVPPTRLLIKEPPKRVGIFVDYRVGSISFYNVTARSHIYTFASCSFSGPLQPIFSPGTRDGGKNTAPLTICPVGGQGPD",binds,binds,binds,
"GFP-TRIM20 M694V (protein, not shown: large carriers) MAKTPSDHLLSTLEELVPYDFEKFKFKLQNTSVQKEHSRIPRSQIQRARPVKMATLLVTYYGEEYAVQLTLQVLRAINQRLLAEELHRAAIQEYSTQENGTDDSAASSSLGENKPRSLKTPDHPEGNEGNGPRPYGGGAASLRCSQPEAGRGLSRKPLSKRREKASEGLDAQGKPRTRSPALPGGRSPGPCRALEGGQAEVRLRRNASSAGRLQGLAGGAPGQKECRPFEVYLPSGKMRPRSLEVTISTGEKAPANPEILLTLEEKTAANLDSATEPRARPTPDGGASADLKEGPGNPEHSVTGRPPDTAASPRCHAQEGDPVDGTCVRDSCSFPEAVSGHPQASGSRSPGCPRCQDSHERKSPGSLSPQPLPQCKRHLKQVQLLFCEDHDEPICLICSLSQEHQGHRVRPIEEVALEHKKKIQKQLEHLKKLRKSGEEQRSYGEEKAVSFLKQTEALKQRVQRKLEQVYYFLEQQEHFFVASLEDVGQMVGQIRKAYDTRVSQDIALLDALIGELEAKECQSEWELLQDIGDILHRAKTVPVPEKWTTPQEIKQKIQLLHQKSEFVEKSTKYFSETLRSEMEMFNVPELIGAQAHAVNVILDAETAYPNLIFSDDLKSVRLGNKWERLPDGPQRFDSCIIVLGSPSFLSGRRYWEVEVGDKTAWILGACKTSISRKGNMTLSPENGYWVVIMVKENEYQASSVPPTRLLIKEPPKRVGIFVDYRVGSISFYNVTARSHIYTFASCSFSGPLQPIFSPGTRDGGKNTAPLTICPVGGQGPD",,,,binds
"GFP-TRIM20 double mutant (M680I+M694V) (protein, not shown: large carriers) MAKTPSDHLLSTLEELVPYDFEKFKFKLQNTSVQKEHSRIPRSQIQRARPVKMATLLVTYYGEEYAVQLTLQVLRAINQRLLAEELHRAAIQEYSTQENGTDDSAASSSLGENKPRSLKTPDHPEGNEGNGPRPYGGGAASLRCSQPEAGRGLSRKPLSKRREKASEGLDAQGKPRTRSPALPGGRSPGPCRALEGGQAEVRLRRNASSAGRLQGLAGGAPGQKECRPFEVYLPSGKMRPRSLEVTISTGEKAPANPEILLTLEEKTAANLDSATEPRARPTPDGGASADLKEGPGNPEHSVTGRPPDTAASPRCHAQEGDPVDGTCVRDSCSFPEAVSGHPQASGSRSPGCPRCQDSHERKSPGSLSPQPLPQCKRHLKQVQLLFCEDHDEPICLICSLSQEHQGHRVRPIEEVALEHKKKIQKQLEHLKKLRKSGEEQRSYGEEKAVSFLKQTEALKQRVQRKLEQVYYFLEQQEHFFVASLEDVGQMVGQIRKAYDTRVSQDIALLDALIGELEAKECQSEWELLQDIGDILHRAKTVPVPEKWTTPQEIKQKIQLLHQKSEFVEKSTKYFSETLRSEMEMFNVPELIGAQAHAVNVILDAETAYPNLIFSDDLKSVRLGNKWERLPDGPQRFDSCIIVLGSPSFLSGRRYWEVEVGDKTAWILGACKTSISRKGNITLSPENGYWVVIMVKENEYQASSVPPTRLLIKEPPKRVGIFVDYRVGSISFYNVTARSHIYTFASCSFSGPLQPIFSPGTRDGGKNTAPLTICPVGGQGPD",,,,binds
"GFP-TRIM20 triple mutant (M680I+M694V+V726A) (protein, not shown: large carriers) MAKTPSDHLLSTLEELVPYDFEKFKFKLQNTSVQKEHSRIPRSQIQRARPVKMATLLVTYYGEEYAVQLTLQVLRAINQRLLAEELHRAAIQEYSTQENGTDDSAASSSLGENKPRSLKTPDHPEGNEGNGPRPYGGGAASLRCSQPEAGRGLSRKPLSKRREKASEGLDAQGKPRTRSPALPGGRSPGPCRALEGGQAEVRLRRNASSAGRLQGLAGGAPGQKECRPFEVYLPSGKMRPRSLEVTISTGEKAPANPEILLTLEEKTAANLDSATEPRARPTPDGGASADLKEGPGNPEHSVTGRPPDTAASPRCHAQEGDPVDGTCVRDSCSFPEAVSGHPQASGSRSPGCPRCQDSHERKSPGSLSPQPLPQCKRHLKQVQLLFCEDHDEPICLICSLSQEHQGHRVRPIEEVALEHKKKIQKQLEHLKKLRKSGEEQRSYGEEKAVSFLKQTEALKQRVQRKLEQVYYFLEQQEHFFVASLEDVGQMVGQIRKAYDTRVSQDIALLDALIGELEAKECQSEWELLQDIGDILHRAKTVPVPEKWTTPQEIKQKIQLLHQKSEFVEKSTKYFSETLRSEMEMFNVPELIGAQAHAVNVILDAETAYPNLIFSDDLKSVRLGNKWERLPDGPQRFDSCIIVLGSPSFLSGRRYWEVEVGDKTAWILGACKTSISRKGNITLSPENGYWVVIMVKENEYQASSVPPTRLLIKEPPKRVGIFVDYRAGSISFYNVTARSHIYTFASCSFSGPLQPIFSPGTRDGGKNTAPLTICPVGGQGPD",,,,binds

# Reference: patent publication US20180236024A1
